The results in this text go back to the supplement of paper PMC7666118.

The chains behind the UniProt entries cited, without tags or fusion partners. Where a name states a change or a piece, a line headed by the entry shows the natural chain unless it says otherwise.
UniProt Q15311: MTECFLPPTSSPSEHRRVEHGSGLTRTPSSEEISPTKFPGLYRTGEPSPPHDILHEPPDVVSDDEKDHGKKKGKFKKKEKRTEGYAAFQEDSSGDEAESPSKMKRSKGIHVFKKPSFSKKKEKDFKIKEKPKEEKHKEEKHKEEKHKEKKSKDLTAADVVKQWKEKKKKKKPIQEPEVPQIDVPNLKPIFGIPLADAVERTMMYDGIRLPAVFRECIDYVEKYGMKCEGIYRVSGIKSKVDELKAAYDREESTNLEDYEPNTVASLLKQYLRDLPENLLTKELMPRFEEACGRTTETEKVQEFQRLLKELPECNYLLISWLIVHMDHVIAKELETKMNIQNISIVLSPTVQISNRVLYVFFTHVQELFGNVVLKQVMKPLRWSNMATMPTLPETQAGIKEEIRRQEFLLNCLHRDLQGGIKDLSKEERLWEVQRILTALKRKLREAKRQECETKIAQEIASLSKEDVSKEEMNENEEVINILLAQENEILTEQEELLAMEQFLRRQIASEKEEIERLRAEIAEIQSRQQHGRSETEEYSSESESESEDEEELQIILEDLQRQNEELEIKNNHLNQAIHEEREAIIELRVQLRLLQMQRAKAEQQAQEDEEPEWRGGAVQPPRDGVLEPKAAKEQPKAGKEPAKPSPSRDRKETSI
UniProt Q09028, whole entry: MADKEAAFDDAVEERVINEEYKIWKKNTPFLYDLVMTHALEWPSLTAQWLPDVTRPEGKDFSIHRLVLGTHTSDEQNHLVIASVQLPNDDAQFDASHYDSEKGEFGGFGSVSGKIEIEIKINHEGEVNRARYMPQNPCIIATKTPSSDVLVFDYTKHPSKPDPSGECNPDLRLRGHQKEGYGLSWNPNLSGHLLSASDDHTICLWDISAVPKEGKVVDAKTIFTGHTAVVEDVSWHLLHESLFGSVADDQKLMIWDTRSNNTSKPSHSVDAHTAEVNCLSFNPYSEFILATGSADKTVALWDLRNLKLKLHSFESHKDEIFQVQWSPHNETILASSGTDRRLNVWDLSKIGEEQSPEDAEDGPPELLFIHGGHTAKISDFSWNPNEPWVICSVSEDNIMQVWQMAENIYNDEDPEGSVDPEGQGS
UniProt Q8TEU7: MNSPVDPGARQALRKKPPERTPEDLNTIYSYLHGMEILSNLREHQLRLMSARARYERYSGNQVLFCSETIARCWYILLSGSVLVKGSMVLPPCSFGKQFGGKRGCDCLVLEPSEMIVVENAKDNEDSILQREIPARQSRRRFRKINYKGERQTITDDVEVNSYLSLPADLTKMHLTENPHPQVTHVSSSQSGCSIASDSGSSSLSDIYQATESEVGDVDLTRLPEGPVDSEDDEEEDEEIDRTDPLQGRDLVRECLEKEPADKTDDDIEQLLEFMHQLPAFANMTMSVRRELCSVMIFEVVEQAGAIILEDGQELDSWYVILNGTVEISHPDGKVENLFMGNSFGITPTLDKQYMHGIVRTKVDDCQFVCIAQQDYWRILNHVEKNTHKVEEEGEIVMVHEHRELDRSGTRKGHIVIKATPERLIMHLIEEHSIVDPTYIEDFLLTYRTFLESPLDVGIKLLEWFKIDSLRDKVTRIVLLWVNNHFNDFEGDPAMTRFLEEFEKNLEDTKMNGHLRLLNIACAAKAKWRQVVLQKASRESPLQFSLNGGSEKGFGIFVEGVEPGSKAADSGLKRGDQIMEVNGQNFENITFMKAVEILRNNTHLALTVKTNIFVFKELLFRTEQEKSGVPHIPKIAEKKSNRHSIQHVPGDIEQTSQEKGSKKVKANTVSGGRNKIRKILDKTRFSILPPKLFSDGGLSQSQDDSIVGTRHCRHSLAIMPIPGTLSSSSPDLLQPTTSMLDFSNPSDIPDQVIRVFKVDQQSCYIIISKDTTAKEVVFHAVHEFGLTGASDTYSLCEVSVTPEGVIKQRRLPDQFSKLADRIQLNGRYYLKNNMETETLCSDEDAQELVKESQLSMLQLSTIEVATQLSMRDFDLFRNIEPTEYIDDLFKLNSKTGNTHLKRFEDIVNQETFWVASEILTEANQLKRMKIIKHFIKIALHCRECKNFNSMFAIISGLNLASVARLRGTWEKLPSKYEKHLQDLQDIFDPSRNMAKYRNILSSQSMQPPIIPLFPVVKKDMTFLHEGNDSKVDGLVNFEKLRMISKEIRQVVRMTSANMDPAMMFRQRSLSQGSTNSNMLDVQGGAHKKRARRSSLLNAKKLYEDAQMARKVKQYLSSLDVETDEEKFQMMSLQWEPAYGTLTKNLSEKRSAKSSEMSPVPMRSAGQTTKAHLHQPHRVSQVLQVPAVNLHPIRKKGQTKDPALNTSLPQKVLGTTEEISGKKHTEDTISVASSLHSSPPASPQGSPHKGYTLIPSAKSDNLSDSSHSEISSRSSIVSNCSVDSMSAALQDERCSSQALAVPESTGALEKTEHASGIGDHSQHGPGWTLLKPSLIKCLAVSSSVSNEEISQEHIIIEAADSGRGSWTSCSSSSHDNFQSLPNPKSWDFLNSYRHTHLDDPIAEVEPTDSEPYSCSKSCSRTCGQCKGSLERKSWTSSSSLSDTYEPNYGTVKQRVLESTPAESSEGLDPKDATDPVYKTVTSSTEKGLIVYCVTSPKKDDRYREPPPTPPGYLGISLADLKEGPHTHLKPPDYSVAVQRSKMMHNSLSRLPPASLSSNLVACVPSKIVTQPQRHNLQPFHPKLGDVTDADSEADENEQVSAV
UniProt Q6GMV3: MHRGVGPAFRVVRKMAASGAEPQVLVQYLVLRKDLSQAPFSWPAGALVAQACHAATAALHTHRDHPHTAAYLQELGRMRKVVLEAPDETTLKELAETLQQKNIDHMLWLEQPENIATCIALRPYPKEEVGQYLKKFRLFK
UniProt P49643: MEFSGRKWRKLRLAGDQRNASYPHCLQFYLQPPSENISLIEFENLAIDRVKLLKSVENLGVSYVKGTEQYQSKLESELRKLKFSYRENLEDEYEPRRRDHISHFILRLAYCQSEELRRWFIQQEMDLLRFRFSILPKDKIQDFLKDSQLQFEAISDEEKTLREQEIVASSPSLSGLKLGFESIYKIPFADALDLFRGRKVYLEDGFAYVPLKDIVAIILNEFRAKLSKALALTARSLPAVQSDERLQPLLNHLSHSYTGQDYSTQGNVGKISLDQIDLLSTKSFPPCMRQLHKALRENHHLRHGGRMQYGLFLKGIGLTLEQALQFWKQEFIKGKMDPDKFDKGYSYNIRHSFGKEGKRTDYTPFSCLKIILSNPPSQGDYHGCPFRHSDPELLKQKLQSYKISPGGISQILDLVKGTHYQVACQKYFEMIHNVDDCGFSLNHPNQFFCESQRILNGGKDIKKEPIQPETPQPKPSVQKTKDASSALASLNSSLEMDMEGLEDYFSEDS
UniProt P35998: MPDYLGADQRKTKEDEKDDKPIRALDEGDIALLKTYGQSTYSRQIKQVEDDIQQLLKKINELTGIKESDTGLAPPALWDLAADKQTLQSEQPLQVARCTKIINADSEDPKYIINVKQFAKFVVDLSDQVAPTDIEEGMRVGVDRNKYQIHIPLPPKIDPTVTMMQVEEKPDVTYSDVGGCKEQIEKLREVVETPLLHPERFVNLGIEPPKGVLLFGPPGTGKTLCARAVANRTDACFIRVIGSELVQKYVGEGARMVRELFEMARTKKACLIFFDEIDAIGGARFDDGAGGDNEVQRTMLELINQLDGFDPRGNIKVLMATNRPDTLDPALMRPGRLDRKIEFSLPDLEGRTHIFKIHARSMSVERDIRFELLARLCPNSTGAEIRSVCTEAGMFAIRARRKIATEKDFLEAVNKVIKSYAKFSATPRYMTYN
UniProt P78330: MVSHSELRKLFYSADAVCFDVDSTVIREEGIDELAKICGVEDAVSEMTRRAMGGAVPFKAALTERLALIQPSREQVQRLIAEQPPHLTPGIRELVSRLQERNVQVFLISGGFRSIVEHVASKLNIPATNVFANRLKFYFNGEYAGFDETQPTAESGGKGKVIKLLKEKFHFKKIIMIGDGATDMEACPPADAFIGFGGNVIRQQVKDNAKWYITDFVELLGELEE
UniProt P20338: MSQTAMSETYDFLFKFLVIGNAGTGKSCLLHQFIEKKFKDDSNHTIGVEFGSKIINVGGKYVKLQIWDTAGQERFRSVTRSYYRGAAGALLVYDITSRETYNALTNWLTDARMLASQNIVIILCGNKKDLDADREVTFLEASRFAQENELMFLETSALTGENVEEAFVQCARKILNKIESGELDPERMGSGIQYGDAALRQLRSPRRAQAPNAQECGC
UniProt O14818: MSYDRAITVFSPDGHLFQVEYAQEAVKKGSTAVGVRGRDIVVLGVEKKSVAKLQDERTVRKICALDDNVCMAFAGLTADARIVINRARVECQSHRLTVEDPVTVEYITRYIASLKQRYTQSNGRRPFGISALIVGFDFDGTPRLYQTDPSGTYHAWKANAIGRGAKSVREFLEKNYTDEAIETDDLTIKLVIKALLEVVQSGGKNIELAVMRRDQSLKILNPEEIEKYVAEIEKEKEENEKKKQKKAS
UniProt P49023, whole entry: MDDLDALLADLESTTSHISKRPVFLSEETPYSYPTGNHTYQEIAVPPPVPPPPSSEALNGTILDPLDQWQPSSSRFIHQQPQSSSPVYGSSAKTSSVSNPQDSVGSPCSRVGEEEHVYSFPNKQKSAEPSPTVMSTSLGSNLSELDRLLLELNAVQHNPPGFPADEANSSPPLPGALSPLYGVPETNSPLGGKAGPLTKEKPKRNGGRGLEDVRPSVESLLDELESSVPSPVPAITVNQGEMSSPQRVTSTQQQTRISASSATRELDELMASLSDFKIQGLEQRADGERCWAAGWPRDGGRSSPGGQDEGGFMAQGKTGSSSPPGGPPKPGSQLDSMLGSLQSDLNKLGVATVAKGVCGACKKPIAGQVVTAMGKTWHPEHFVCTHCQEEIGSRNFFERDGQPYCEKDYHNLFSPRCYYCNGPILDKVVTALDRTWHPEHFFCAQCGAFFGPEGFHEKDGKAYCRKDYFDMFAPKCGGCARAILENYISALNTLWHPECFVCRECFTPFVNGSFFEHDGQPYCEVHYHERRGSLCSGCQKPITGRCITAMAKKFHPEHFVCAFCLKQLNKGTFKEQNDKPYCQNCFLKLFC
UniProt Q5JS54: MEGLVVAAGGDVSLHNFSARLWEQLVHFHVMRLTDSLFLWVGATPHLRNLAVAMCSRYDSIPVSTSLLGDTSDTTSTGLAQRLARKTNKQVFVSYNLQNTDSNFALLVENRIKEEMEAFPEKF
UniProt Q14558: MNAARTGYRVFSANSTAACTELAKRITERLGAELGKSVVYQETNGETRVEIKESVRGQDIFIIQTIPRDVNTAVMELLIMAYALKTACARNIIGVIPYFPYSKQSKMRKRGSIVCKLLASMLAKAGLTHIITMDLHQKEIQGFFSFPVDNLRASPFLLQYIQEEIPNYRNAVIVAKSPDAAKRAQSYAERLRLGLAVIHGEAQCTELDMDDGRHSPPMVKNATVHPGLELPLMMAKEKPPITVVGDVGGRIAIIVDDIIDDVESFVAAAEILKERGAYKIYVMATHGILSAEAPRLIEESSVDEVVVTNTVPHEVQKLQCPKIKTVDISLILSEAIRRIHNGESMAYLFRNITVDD
UniProt P18433: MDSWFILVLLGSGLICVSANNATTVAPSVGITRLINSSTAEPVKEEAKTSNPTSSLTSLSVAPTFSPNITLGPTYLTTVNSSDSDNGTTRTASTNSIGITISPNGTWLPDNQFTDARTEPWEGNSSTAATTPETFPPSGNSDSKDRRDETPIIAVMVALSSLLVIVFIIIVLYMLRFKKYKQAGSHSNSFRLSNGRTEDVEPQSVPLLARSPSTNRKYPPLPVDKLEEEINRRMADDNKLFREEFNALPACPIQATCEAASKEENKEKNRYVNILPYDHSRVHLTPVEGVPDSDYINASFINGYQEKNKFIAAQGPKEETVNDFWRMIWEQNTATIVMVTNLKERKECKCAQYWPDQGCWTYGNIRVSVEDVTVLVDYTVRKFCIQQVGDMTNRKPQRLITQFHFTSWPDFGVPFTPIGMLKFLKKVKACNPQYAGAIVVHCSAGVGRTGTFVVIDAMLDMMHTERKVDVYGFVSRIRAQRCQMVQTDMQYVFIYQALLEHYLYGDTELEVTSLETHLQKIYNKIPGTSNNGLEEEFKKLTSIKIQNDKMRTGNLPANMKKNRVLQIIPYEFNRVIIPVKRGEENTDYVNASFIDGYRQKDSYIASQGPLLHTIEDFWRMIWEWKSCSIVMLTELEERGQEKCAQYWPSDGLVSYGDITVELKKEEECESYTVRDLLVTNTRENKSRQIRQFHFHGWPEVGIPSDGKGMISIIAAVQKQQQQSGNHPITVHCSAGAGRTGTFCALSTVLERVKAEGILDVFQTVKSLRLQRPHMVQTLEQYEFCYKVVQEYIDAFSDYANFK
UniProt O95997: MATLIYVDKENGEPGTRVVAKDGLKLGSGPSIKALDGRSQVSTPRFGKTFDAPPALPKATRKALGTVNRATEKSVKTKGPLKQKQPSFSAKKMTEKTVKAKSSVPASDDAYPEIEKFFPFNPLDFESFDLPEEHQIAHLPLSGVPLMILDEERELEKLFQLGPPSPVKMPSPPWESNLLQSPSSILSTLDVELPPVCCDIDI

The list shows a part of the results.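 How the source made its calls: active = dose-dependent thermal stabilisation significant by F-test of dose-response against flat model at 10% FDR; inactive = not significant.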

Compound in the test: Nc1nc2c(ncn2[C@@H]2O[C@H](COP(=O)(O)OP(=O)(O)OP(=O)(O)O)[C@@H](O)[C@H]2O)c(=O)[nH]1
The experiment in a line: dose-dependent thermal stabilisation call (2D-TPP, DLPTP, 10% FDR) (binary (1 = stabilised)); higher = stabilised by the compound. The note with it: system: Jurkat gel-filtered lysate; concentration range 1-500 µM.
With UniProt Q6ZT62, the “dose-dependent thermal stabilisation call” value is inactive: 0. As for PRR12 (UniProt Q9ULL5), the figure is inactive: 0; as for RAE1 (UniProt P78406), inactive: 0; as for PSMD12 (UniProt O00232), inactive: 0. As for PRPS2 (UniProt P11908), the figure is inactive: 0; as for QTRT1 (UniProt Q9BXR0), inactive: 0; as for RALBP1 (UniProt Q15311), active: 1.

Consider RBBP4 (UniProt Q09028), for which the “dose-dependent thermal stabilisation call” value was inactive: 0. On to QRICH1 (UniProt Q2TAL8), for which the “dose-dependent thermal stabilisation call” value was inactive: 0.

On to RAPGEF6 (UniProt Q8TEU7), for which the “dose-dependent thermal stabilisation call” value was inactive: 0.

On to PSIP1 (UniProt O75475), for which the “dose-dependent thermal stabilisation call” value is inactive: 0.

Regarding PTRHD1 (UniProt Q6GMV3), the “dose-dependent thermal stabilisation call” value was inactive: 0. Next, PRIM2 (UniProt P49643): active: 1; PTBP2 (UniProt Q9UKA9): inactive: 0; PSMC2 (UniProt P35998): inactive: 0. As for RAP1GAP (UniProt P47736), the figure is inactive: 0. Next, PSPH (UniProt P78330): inactive: 0; RAB4A (UniProt P20338): active: 1.

For the target PTER (UniProt Q96BW5), the “dose-dependent thermal stabilisation call” value was inactive: 0.

Consider PTPN22 (UniProt Q9Y2R2), for which the “dose-dependent thermal stabilisation call” value was inactive: 0. As for RAP1GAP2 (UniProt Q684P5), the figure is active: 1. In the case of PRMT9 (UniProt Q6P2P2), the “dose-dependent thermal stabilisation call” value is inactive: 0. Next, RB1 (UniProt P06400): inactive: 0; RBCK1 (UniProt Q9BYM8): inactive: 0. Next, PSMA7 (UniProt O14818): inactive: 0. Turning to PUM1 (UniProt Q14671), the “dose-dependent thermal stabilisation call” value is inactive: 0. PXN (UniProt P49023): the “dose-dependent thermal stabilisation call” value is inactive: 0. Next, RAB24 (UniProt Q969Q5): inactive: 0; PSMG4 (UniProt Q5JS54): inactive: 0; PRMT1 (UniProt Q99873): inactive: 0. Next, PSMB7 (UniProt Q99436): inactive: 0. Next, RAB10 (UniProt P61026): active: 1; PRPSAP1 (UniProt Q14558): inactive: 0. In the case of PTPRA (UniProt P18433), the “dose-dependent thermal stabilisation call” value is inactive: 0. Next, PTTG1 (UniProt O95997): inactive: 0; RBFOX2 (UniProt O43251): inactive: 0.
